Test results from patent publication US9696316B2, “Conformationally dynamic peptides” (SYSTEM OF SYSTEMS ANALYTICS, INC., priority 2009, dated 2017).

Test: Solvent (TFE)-induced conformational change, pyrene excimer:monomer fluorescence
Assay type: physicochemical

Substance: KLVFFAEDVGSNKHAIIELMK (KLVFFAEDVGSNKHAIIELMK) [Peptide 22, Salt bridge at G29H and G33E]
- maximal signal response, excimer:monomer fluorescence ratio (signal gain from 80 to 20% TFE) (2 μM di-pyrene peptide, 10 mM Tris pH 7.0, 30 min): approximately 100 ratio units
- maximal signal response relative to the reference peptide (SEQ ID NO:1) (signal gain from 80 to 20% TFE in buffer): 4 times
